This is one part of the list. The main result of the screen is listed elsewhere. These columns were measured beside it and carry no call. Compounds called inactive in the main read-out are mostly missing here. Potencies come from curve fits of mixed quality, noted in brackets.

The text below walks through data of PubChem BioAssay AID2685 (National Center for Advancing Translational Sciences (NCATS), 2010).

The assay in a line: qHTS Assay for Lipid Storage Modulators in Drosophila S3 Cells.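 As to cell number change: cells counted by Cell Tracker Red CMTPX staining in the red channel.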 To be noted: BODIPY lipid droplet fluorescence, 18-24 h; for cell number change: measured here: cell count max response, cells fed with added oleic acid. A digest of the protocol:
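Drosophila S3 cells got compounds at several concentrations plus oleic acid (400 uM solution). Laser-scanning cytometry with 488 nm excitation read lipid droplets at 500-530 nm and cells at 575-640 nm. Percent activity was relative to 20 uM Triacsin C.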

[1] abbreviates: measured here: lipid fluorescence (Fed channel) AC50, cells fed with added oleic acid.
[2] abbreviates: measured here: cell number channel AC50, cells fed with added oleic acid.

As a reminder, the AC50 is the concentration at which the activity in the assay is half-maximal. The low end stands for activity at low concentration, the high end for activity only at high concentration. For `O=C(Cc1cn2ccsc2n1)Nc1ccccc1Oc1ccccc1`, the cell number change was 10.2%. Further, the AC50 under setting [1] is 10.3 µM [rising, partial curve].

As for `Cn1c(=NC(=O)CS(=O)(=O)c2ccccc2)sc2ccccc21`, under setting [2], the AC50 was 6.51 µM [rising, single point].

Consider `O=C(NCc1cccnc1)Nc1cccc(C(F)(F)F)c1`, for which the cell number change is 4.95%. Also, the AC50 under setting [1] is 29.1 µM [falling, single point].

Regarding `C=C(C)[C@@H]1CC[C@]2(C(=O)O)CC[C@]3(C)[C@H](CC[C@@H]4[C@@]5(C)CC[C@H](O)C(C)(C)[C@@H]5CC[C@]43C)[C@@H]12`, the cell number change is -31.4%. The AC50 under setting [2] was 3.26 µM [falling, full curve].

On to `N#CCCn1cc(/C=N/NC(N)=S)c(-c2ccc(Br)cc2)n1`, for which the cell number change was -23%. Further, under setting [2], the half-maximal activity concentration (AC50) is 0.164 µM [falling, full curve, poor fit]. Moreover, the AC50 under setting [1] was 0.326 µM [falling, full curve, poor fit].

On to `COC(=O)N/N=C/c1cn(Cc2ccccc2F)c2ccccc12`, for which the cell number change is 31.2%. Besides, the AC50 under setting [2] is 4.11 µM [rising, full curve].

For `CCc1ccccc1-n1nnnc1-c1cnccc1C(F)(F)F`, the cell number change is 24.1%. The AC50 under setting [2] is 2.91 µM [falling, partial curve]. For the same compound, the AC50 under setting [1] was 5.17 µM [falling, single point].

Turning to `Cc1ccc(CS(=O)(=O)c2ncc(Cl)c(C(=O)Nc3ccc(OC(F)F)cc3)n2)cc1`, the half-maximal activity concentration (AC50) under setting [1] was 2.59 µM [falling, full curve].

With `CC(=O)Nc1ccc(OC(=O)Oc2ccc(NC(C)=O)cc2)cc1`, the AC50 is, setting by setting: under setting [2], 1.46 µM [rising, partial curve]; under setting [1], 2.06 µM [rising, partial curve].

In the case of `CC(C)C(NC(=O)c1ccccc1F)C(=O)OCC(=O)c1ccc(F)cc1` (stereo not given), the cell number change was -15.5%. The AC50 under setting [2] was 0.0517 µM [falling, partial curve, poor fit].

For `CC1CCCN(C2(O)C(=O)Nc3ccc(Cl)cc32)C1` (stereo not given), the cell number change worked out at 22.5%. In addition, under setting [1], the AC50 was 2.59 µM [rising, single point].

Consider `COc1cc(NC(=O)CSc2nc(=O)n(CCCN3CCOCC3)c3c2CCC3)cc(OC)c1`, for which the cell number change came out at 25%. For the same compound, the AC50 under setting [2] was 0.366 µM [rising, full curve, poor fit].

For `C=CCOC(=O)C1=C(C)NC(SCC(=O)Nc2ccccc2)=C(C#N)C1c1ccco1` (stereo not given), the cell number change was -78.8%. Besides, the half-maximal activity concentration (AC50) under setting [2] was 4.61 µM [falling, partial curve]. Further, the AC50 under setting [1] was 10.3 µM [falling, partial curve].

Turning to `O=C(CSc1nnc(CN2CCCCCC2=O)n1-c1ccccn1)NCC(F)(F)F`, the cell number change was -53.5%. Further, the AC50 under setting [2] is 5.17 µM [falling, single point]. For the same compound, under setting [1], the AC50 was 29.1 µM [falling, single point].

For the compound `COC(=O)Cn1c(CN(C)Cc2ccccc2)nc2c1c(=O)n(C)c(=O)n2C`, the cell number change was -33.7%. Under setting [2], the AC50 was 14.6 µM [falling, partial curve, poor fit]. Also, the AC50 under setting [1] is 0.0231 µM [falling, full curve].

Take `Cn1ccnc1-c1ccc(-c2nccn2C)cc1`: the cell number change was -6.32%. In addition, under setting [1], the concentration at half-maximal activity (AC50) is 14.6 µM [falling, single point].

In the case of `COc1ccc(CCNC(=O)C(=O)NCCOc2ccccc2Cl)cc1OC`, the cell number change was -83.3%. Also, the concentration at half-maximal activity (AC50) under setting [2] is 14.6 µM [falling, partial curve]. Moreover, the AC50 under setting [1] was 0.82 µM [falling, full curve, poor fit].

For `COc1ccc(CNC(=O)C2CCCN2S(=O)(=O)c2ccccc2)cc1` (stereo not given), the cell number change amounted to 73.3%. In addition, the AC50 under setting [2] was 5.17 µM [rising, full curve].

For the compound `O=C(N[C@H]1CCC(=O)N([C@H](CSc2ccccc2)Cc2ccccc2)CC1)OCc1ccccc1`, the cell number change was -0.647%. Further, the AC50 under setting [1] is 0.0146 µM [falling, full curve, poor fit].

In the case of `O=C(c1ccc2ccccc2c1)N1CCOCC1`, the cell number change is -11.6%.

Take `CCc1sc(NC(=O)COC)nc1-c1ccccc1`: the cell number change came to 63.4%. In addition, under setting [2], the concentration at half-maximal activity (AC50) is 29.1 µM [rising, single point]. For the same compound, the AC50 under setting [1] is 18.4 µM [rising, partial curve].

For the compound `COc1ccccc1CCNC(=O)C1CCN(c2nnc(C)c3c(C)n(-c4ccc(C)cc4)nc23)CC1`, the cell number change was -12%. Further, the half-maximal activity concentration (AC50) under setting [2] was 0.164 µM [rising, partial curve]. Moreover, under setting [1], the AC50 is 6.51 µM [rising, single point].

`C/C(=N\NC(=O)CN(c1ccccc1)S(C)(=O)=O)c1ccccc1O`: the cell number change came out at 16.4%. Moreover, the AC50 under setting [2] was 0.058 µM [falling, full curve, poor fit]. The AC50 under setting [1] was 5.17 µM [falling, partial curve, poor fit].

`CCOc1ccccc1NC(=O)N1CCC(c2nc3ccccc3[nH]2)CC1`: the cell number change is 21.7%. Besides, the concentration at half-maximal activity (AC50) under setting [1] is 1.84 µM [rising, partial curve].

Take `COc1ccccc1N(CC(=O)NCCC1=CCCCC1)S(=O)(=O)c1ccccc1`: the cell number change was -15%.

As to `CCNc1nc(-c2cc(C)n(Cc3ccco3)c2C)cs1`, the cell number change was -8.75%.

In the case of `CCCC1S/C(=N/N=C/c2ccco2)NC1=O` (stereo not given), the cell number change is -34.4%. For the same compound, the concentration at half-maximal activity (AC50) under setting [1] is 20.6 µM [falling, partial curve, poor fit].

As for `CCCCN(CCCC)CCNC(=O)Cc1nc2c(c(=O)[nH]c(=O)n2C)n1C`, the cell number change came out at 5.32%.

For the compound `COc1ccc(CCNC(=O)c2ccccc2Cl)cc1OC`, the cell number change is 6.15%. Also, the AC50 under setting [1] was 29.1 µM [rising, single point].

In the case of `O=C(O)c1c(-c2ccccc2)c(-c2ccccc2)nc2ccccc12`, the cell number change was -34.6%. In addition, under setting [2], the AC50 is 7.31 µM [falling, single point].

For the compound `O=C(C1CCC1)N(CCc1ccccc1)Cc1nc2ccccc2c(=O)[nH]1`, the cell number change was -15.9%. Moreover, under setting [1], the concentration at half-maximal activity (AC50) is 0.164 µM [rising, single point].

As to `CCCOC(=O)C1=C(C)N(C)C(=O)NC1c1cc2c(cc1[N+](=O)[O-])OCO2` (stereo not given), the cell number change was -70.8%. Under setting [2], the half-maximal activity concentration (AC50) was 29.1 µM [falling, single point].

In the case of `Clc1ccc(SCc2cc(-c3ccc(Cl)cc3)on2)cc1`, the cell number change was 41.7%. Besides, the AC50 under setting [1] was 5.8 µM [falling, single point].

Take `Cc1cc2cc(CNC(=O)c3ccc4c(c3)OCO4)ccc2[nH]1`: the cell number change was determined as 20.8%. The half-maximal activity concentration (AC50) under setting [1] was 0.103 µM [rising, full curve, poor fit].

On to `O=C(Nc1nc(-c2ccc(S(=O)(=O)N3CCCC3)cc2)cs1)c1cccs1`, for which the cell number change was -34.5%. For the same compound, the AC50 under setting [2] is 16.4 µM [falling, partial curve, poor fit].

For the compound `COc1ccc(C(C)=O)cc1CN1C(=O)NC2(CCCCCC2)C1=O`, the cell number change was determined as 39%. Moreover, the concentration at half-maximal activity (AC50) under setting [2] was 14.6 µM [rising, partial curve].
